Structures can show the parent of a compound that is named as a salt. Some of the results follow. This data set is noisy: repeats of one test often differ as much as different tests do.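 A first-round screen of about ten thousand compounds sought those raising reporter output, using human embryonic kidney cells briefly transfected with a plasmid carrying a Renilla luciferase gene driven by the HSV-TK promoter.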

The test concerns HEK 293FT. The test is described as follows: log relative Renilla luciferase luminescence (reporter expression vs reference, reference not stated) (log (base not stated)); higher = higher recombinant reporter expression. The conditions noted are these: 10 µM; time after transfection 48 h.
For the compound `CCN(CC)CCOC(=O)C(c1ccccc1)C1CCCCC1` (centres undefined) [drofenine hydrochloride], the log is -0.226.
Then `COc1cc(Cc2cnc(N)nc2N)cc(OC)c1OC` [trimethoprim], with 0.0278; and `O=C(CCCN1CCC(O)(c2ccc(Br)cc2)CC1)c1ccc(F)cc1` [bromperidol], with -0.0569; and `CNCC[C@H](Oc1cccc2ccccc12)c1cccs1` [duloxetine hydrochloride], with 0.0409.
As for `CC(=O)c1ccc2c(c1)N(CCCN1CCC(CCO)CC1)c1ccccc1S2` [piperacetazine], the figure is 0.0782.
For the compound `CO[C@@]1(NC(=O)Cc2cccs2)C(=O)N2C(C(=O)O)=C(COC(N)=O)CS[C@@H]21` [cefoxitin sodium], the log came out at 0.131.
As for `CC(C)CCCC(C)C1CCC2C3CCC4CCCCC4(C)C3CCC12C` (centres undefined) [cholestane], the figure is -0.00488; as for `COc1cc2c(cc1OC)C(=O)C(CC1CCN(Cc3ccccc3)CC1)C2` (centres undefined) [donepezil hydrochloride], 0.0261.
Then `CCCCC(CC)CN1CN(CC(CC)CCCC)CC(C)(N)C1` (centres undefined) [hexetidine], with -0.107; and `COc1ccc(C2C(=O)c3ccccc3C2=O)cc1` [anisindione], with 0.0313; and `Cc1cccc(C)c1NC(=O)C1CCCCN1C` (centres undefined) [mepivacaine hydrochloride], with 0.194.
As for `CN(C)c1ccc2nc3ccc(=[N+](C)C)cc-3sc2c1` [methylene blue], the figure is -0.965; as for `COc1cc(/C=C/C(=O)N2CCC=CC2=O)cc(OC)c1OC` [piplartine], -1.34.
Regarding `N#Cc1ccc2[nH]cc(CCCCN3CCN(c4ccc5oc(C(N)=O)cc5c4)CC3)c2c1` [vilazodone hydrochloride], the log is -0.0134.
Then `COc1cc(OC)c2c(OC)c(-c3ccc4c(c3)OCO4)c(=O)oc2c1` [derrusnin], with 0.0777.
Then `CN1C(C(=O)Nc2ccccn2)=C(O)c2sccc2S1(=O)=O` [tenoxicam], with 0.0728.
As for `Cc1ncc([N+](=O)[O-])n1CC(O)CCl` (centres undefined) [ornidazole], the figure is 0.0118; as for `C[C@]12CC[C@H]3C(=CCc4cc(O)ccc43)[C@@H]1CCC2=O` [equilin], -0.128.
On to `C[C@]12C=CC(=O)C=C1CC[C@@H]1[C@@H]2[C@@H](O)C[C@@]2(C)[C@H]1CC[C@]2(O)C(=O)COP(=O)(O)O` [prednisolone sodium phosphate], for which the log was -0.0938.
Then `N=C(N)N` [guanidine hydrochloride], with 0.0893; and `Cc1c(C(N)=O)cc([N+](=O)[O-])cc1[N+](=O)[O-]` [dinitolmide], with 0.00265.
As for `C=C[C@H]1CN2CC[C@H]1C[C@@H]2[C@@H](O)c1ccnc2ccc(OC)cc12` [quinidine gluconate], the figure is 0.00864.
Then `CS(=O)(=O)c1ccc(C2=C(c3ccccc3)C(=O)OC2)cc1` [rofecoxib], with 0.0569; and `Cn1c(=O)c2[nH]cnc2n(C)c1=O` [oxtriphylline], with 0.111.
Take `Oc1ccc(Cl)c2c1CCC2` [chlorindanol]: the log is -0.0185.
Regarding `COc1ccc2c(c1OC)OC[C@@H](c1ccc(OC)c(OC)c1OC)C2` [duartin, dimethyl ether], the log was determined as 0.134.
As for `C#C[C@]1(O)CC[C@H]2[C@@H]3CCc4cc(OC5CCCC5)ccc4[C@H]3CC[C@@]21C` [quinestrol], the figure is -0.121; as for `Cc1ccnc2c1NC(=O)c1cccnc1N2C1CC1` [nevirapine], 0.0767.
Then `CN(C)CCC=C1c2ccccc2CCc2ccccc21` [amitriptyline hydrochloride], with -0.0177; and `Cc1[nH]c(=O)c(C#N)cc1-c1ccncc1` [milrinone], with -1.4.
For `COC(=O)C[C@H]1C(C)(C)C(=O)[C@@H]2CC3=C(CC[C@]4(C)C3=CC(=O)O[C@H]4c3ccoc3)[C@@]1(C)C2=O` [carapin-8(9)-ene], the log was -0.047.
Then `O=C(Nc1ccccc1)c1ccccc1O` [salicylanilide], with -1.61; and `NS(=O)(=O)c1cc2c(cc1Cl)N=CNS2(=O)=O` [chlorothiazide], with -0.0868.
As for `CNS(=O)(=O)Cc1ccc2[nH]cc(CCN(C)C)c2c1` [sumatriptan succinate], the figure is -0.105.
Then `CN[C@H](CC(C)C)C(=O)N[C@H]1C(=O)N[C@@H](CC(N)=O)C(=O)N[C@H]2C(=O)N[C@H]3C(=O)N[C@H](C(=O)N[C@H](C(=O)O)c4cc(O)cc(O)c4-c4cc3ccc4O)[C@H](O)c3ccc(c(Cl)c3)Oc3cc2cc(c3O[C@@H]2O[C@H](CO)[C@@H](O)[C@H](O)[C@H]2O[C@H]2C[C@](C)(N)[C@H](O)[C@H](C)O2)Oc2ccc(cc2Cl)[C@H]1O` [vancomycin hydrochloride], with -0.0398; and `O=C(CCCl)NCc1ccccc1` [beclamide], with -0.0346; and `CCC(CCC(C)C1CCC2C3CCC4CC(O)CCC4(C)C3CCC12C)C(C)C` (centres undefined) [fucostanol], with 0.185.
For the compound `NC(=O)c1ncn([C@@H]2O[C@H](CO)[C@@H](O)[C@H]2O)n1` [ribavirin], the log is -0.0137.
As for `C#CCCCCCCCCCCCC(O)CC(O)CO.C=CCCCCCCCCCCCC(O)CC(O)CO` (centres undefined) [avocatin b], the figure is 0.0168; as for `CCOC(=O)[C@H](CCc1ccccc1)N[C@@H](C)C(=O)N1[C@H](C(=O)O)C[C@@H]2CCC[C@@H]21` [ramipril], 0.0773; as for `CC1=CC2C(C(C)C)CCC(C)(O)C2CC1` (centres undefined) [cadin-4-en-10-ol], -0.0238.
In the case of `CC(C)COCC(CN(Cc1ccccc1)c1ccccc1)N1CCCC1` (centres undefined) [bepridil hydrochloride], the log was found to be 0.127.
Then `O=C(O)c1cc(=O)c2ccccc2o1` [chromocarb], with 0.0409.
Then `COc1ccc2oc(-c3ccccc3)c(OC)c(=O)c2c1` [3,6-dimethoxyflavone], with -0.0136; and `COc1ccc2ccc(=O)oc2c1` [herniarin], with -0.0238.
As for `NS(=O)(=O)c1cc(C(=O)O)c(NCc2ccco2)cc1Cl` [furosemide], the figure is 0.151; as for `Cc1cc(C2CCCCC2)n(O)c(=O)c1` [ciclopirox olamine], -0.919.
Regarding `S=C1SCN(Cc2ccccc2)CN1Cc1ccccc1` [sulbentine], the log was -1.44.
As for `CCOc1ccc(C(=O)c2ccc(OC)c(O)c2O)cc1` [2,3-dihydroxy-4-methoxy-4'-ethoxybenzophenone], the figure is 0.196; as for `COc1ccc(Cc2cnc(N)nc2N)cc1OC` [diaveridine], -1.44; as for `N=C(N)NC(=O)c1nc(Cl)c(N)nc1N` [amiloride hydrochloride], -0.0675.
Turning to `CCCCOC(=O)c1ccc(N)cc1` [butamben], the log is -0.174.
Then `O=C(Nc1ccc(C(=O)O)c(O)c1)c1ccccc1` [benzoylpas], with 0.0848; and `CC[C@H]1OC(=O)[C@H](C)[C@@H](O[C@H]2C[C@@](C)(OC)[C@@H](O)[C@H](C)O2)[C@H](C)[C@@H](O[C@@H]2O[C@H](C)C[C@H](N(C)C)[C@H]2O)[C@](C)(OC)C[C@@H](C)C(=O)[C@H](C)[C@@H](O)[C@]1(C)O` [clarithromycin], with 0.174; and `C[C@H]1COC2=C1C(=O)C(=O)c1c2ccc2c1CCCC2(C)C` [cryptotanshinone], with -0.0931.
As for `CCCCC1=NC2(CCCC2)C(=O)N1Cc1ccc(-c2ccccc2-c2nnn[nH]2)cc1` [irbesartan], the figure is -0.206.
Then `CCNC(=O)/C=C/c1cccc(Br)c1` [cinromide], with -0.00497; and `C=CCCCCCCCCC(=O)[O-].C=CCCCCCCCCC(=O)[O-].[Zn+2]` [zinc undecylenate], with 0.16; and `COC(=O)Nc1nc2cc([S+]([O-])c3ccccc3)ccc2[nH]1` (centres undefined) [oxfendazole], with 0.131.
Regarding `O=c1cc(-c2ccccc2)oc2cccc(O)c12` [primuletin], the log was 0.0673.
Then `CNc1ccccc1C(=O)N1CCc2c([nH]c3ccccc23)C1=O` [rhetsinine], with -0.0193.
Then `COc1ccc2c(=O)c(CC(=O)O)coc2c1` [anhydrobrazilic acid], with -0.0235; and `COc1ccccc1OCC(O)COC(N)=O` (centres undefined) [methocarbamol], with -0.0916.
In the case of `Nc1ccn([C@@H]2CS[C@H](CO)O2)c(=O)n1` [lamivudine], the log was determined as 0.0881.
Consider `Cc1cc(N)c2ccccc2[n+]1CCCCCCCCCC[n+]1c(C)cc(N)c2ccccc21` [dequalinium chloride], for which the log is -0.0366.
As for `CO/N=C(\C(=O)N[C@@H]1C(=O)N2C(C(=O)OC(C)OC(C)=O)=C(COC(N)=O)CS[C@H]12)c1ccco1` (some centres undefined) [cefuroxime axetil], the figure is -0.176; as for `CC1(C)CC2C1CCC1(C)OC2(C)CCC1O` (centres undefined) [3,7-epoxycaryophyllan-6-ol], 0.025.
On to `CN(C)CC(c1ccc(O)cc1)C1(O)CCCCC1` (centres undefined) [desvenlafaxine succinate], for which the log is -0.0614.
As for `NC(=O)[C@@H]1CCCN1C(=O)[C@H](Cc1c[nH]cn1)NC(=O)[C@@H]1CCC(=O)N1` [protirelin], the figure is 0.0956.
As to `COc1c(N2CCNC(C)C2)c(F)cc2c(=O)c(C(=O)O)cn(C3CC3)c12` (centres undefined) [gatifloxacin], the log is 0.0698.
Then `N[C@@H](C(=O)O)[C@@H](O)[C@H](O)[C@H](O)CO` [glucosaminic acid], with 0.0151.
Take `O=C(c1ccccc1)c1ccc2n1CCC2C(=O)O` (centres undefined) [ketorolac tromethamine]: the log was 0.159.
Then `OCc1ccccc1O` [salicyl alcohol], with 0.00789; and `CN1Cc2c(N)cccc2C(c2ccccc2)C1` (centres undefined) [nomifensine maleate], with -0.0596; and `FC(F)(F)COCC(F)(F)F` [flurothyl], with -0.073.
As for `CCN[C@@H]1C[C@H](N)[C@@H](O[C@H]2OC(CN)=CC[C@H]2N)[C@H](O)[C@H]1O[C@H]1OC[C@](C)(O)[C@H](NC)[C@H]1O` [netilmicin sulfate], the figure is -0.105.
`CC(C)(O)c1ccccc1CC[C@@H](SCC1(CC(=O)O)CC1)c1cccc(/C=C/c2ccc3ccc(Cl)cc3n2)c1` [montelukast sodium]: the log is -0.0331.
As for `C=C(C)[C@@H]1CC=C(CO)CC1` [perillyl alcohol], the figure is 0.0749; as for `COC1=C(OC)C(=O)C(C/C=C(\C)CC/C=C(\C)CC/C=C(\C)CC/C=C(/C)CC/C=C(\C)CC/C=C(\C)CC/C=C(\C)CC/C=C(\C)CC/C=C(\C)CCC=C(C)C)=C(C)C1=O` [ubidecareneone], 0.0695.

(Values after the supplement of paper PMC7024190.)
